This note sets out measurements from paper PMC7383879, “HSI2/VAL1 and HSL1/VAL2 function redundantly to repress DOG1 expression in Arabidopsis seeds and seedlings”.

For at least one entry, the source does not settle the construct or the ends of the probe. For some assays here: Negatives hold for the conditions tested. For some assays here: A weaker result is weaker than the reference pair of the same experiment. For some assays here: Protein sequences can lack the tags named with them.

Data set [1] concerns the target mutant HSI2 B3 domain (mB3HSI2) (Arabidopsis thaliana) (UniProt Q8W4L5). The data set can be described thus: EMSA. To be noted: 10 mM Tris pH 7.9, 30 mM KCl, 0.1 mM EDTA, 1 mM DTT, 0.05% NP-40, 6.5% glycerol, 50 fmol probe, 20 min at room temperature; recombinant protein; protein details: His; label: 3' biotin. Background: A gel shift assay detects complexes by their altered migration in electrophoresis.

For data set [2], the target named is T1, HSI2 B3 domain (B3HSI2) (Arabidopsis thaliana) (UniProt Q8W4L5).
T1 sequence (looked up, limits assumed): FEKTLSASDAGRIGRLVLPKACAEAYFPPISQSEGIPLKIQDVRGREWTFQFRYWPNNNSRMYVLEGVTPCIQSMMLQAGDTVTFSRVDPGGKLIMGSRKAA
The data set is described as follows: EMSA. To be noted: 10 mM Tris pH 7.9, 30 mM KCl, 0.1 mM EDTA, 1 mM DTT, 0.05% NP-40, 6.5% glycerol, 50 fmol probe, 20 min at room temperature; recombinant protein; protein details: His-Trx (Results), His (Methods, legend); label: 3' biotin.

In the case of “GTCCTCCACGTAATGCATGCATGCGTTATTTCTTTT (double strand) [RY1 probe]”, in data set [1], the binding result is “no binding”. Regarding “AATTAATACTATAATATATGCATGTAAAATCTTGTTTTTTCT (double strand) [RY2 probe]”, the binding result in data set [2] was “binds more weakly”.
